The values that follow come from the supplement of paper PMC4604168 (melanoma cell lines).

Each structure is given as a SMILES string. The list shows a part of the results. Repeats are few or missing, and single values can be far off.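 Cells were imaged in 1,536-well plates, and nuclei stained with an antibody against cleaved PARP were counted against all DNA-stained nuclei to give the apoptosis fraction. Screening doses were chosen to leave most cells alive, and resting and induced cleaved-PARP levels differ strongly between cell lines.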

This test relates to IPC-298. Description: cleaved PARP positive nuclei fraction relative to DMSO control; melanoma cells; higher = more apoptosis. The following applies: library dose: low library concentration; 72 h.
On to `CN(NC(=O)CC(=O)NN(C)C(=S)c1ccccc1)C(=S)c1ccccc1` + CCCCCCCCCCCC1=C(O)C(=O)C=C(O)C1=O [Embelin] (first compound 0.006 µM, partner dose 1.2 µM), for which the “cleaved PARP positive nuclei fraction” value is 46.3%.
Regarding `COc1ccc2c(c1)CCC1C2CCC2(C)C(NCCCCCCN3C(=O)C=CC3=O)CCC12` (stereo unspecified) + O=c1cc(-c2cccc3c2Sc2ccccc2S3)oc(N2CCOCC2)c1 [KU55933] (first compound 0.4 µM, partner dose 1 µM), the “cleaved PARP positive nuclei fraction” value was 169%.
Consider `COc1ccc2c(c1)CCC1C2CCC2(C)C(NCCCCCCN3C(=O)C=CC3=O)CCC12` (stereo unspecified) + Oc1nc(-c2ccc(C(F)(F)F)cc2)nc2c1CSCC2 [XAV939] (first compound 0.4 µM, partner dose 2 µM), for which the “cleaved PARP positive nuclei fraction” value was found to be 160%.
Take `O=C(O)c1ccc(-c2c[nH]c3ncc(-c4ccccc4)cc23)cc1C1CCCC1` + COc1ccc2c(c1)CCC1C2CCC2(C)C(NCCCCCCN3C(=O)C=CC3=O)CCC12 [U73122] (first compound 0.16 µM, partner dose 0.4 µM): the “cleaved PARP positive nuclei fraction” value turned out to be 115%.
For `CCc1ccc(CCOc2ccc(CC3SC(=O)NC3=O)cc2)nc1` (stereo unspecified) [pioglitazone] + Oc1nc(-c2ccc(C(F)(F)F)cc2)nc2c1CSCC2 [XAV939] (first compound 2 µM, partner dose 2 µM), the “cleaved PARP positive nuclei fraction” value was found to be 38.6%.
As to `COc1cc2c(Oc3ccc4[nH]c(C)cc4c3F)ncnc2cc1OCCCN1CCCC1` [cediranib] + COc1cc2ncnc(Nc3ccc(Oc4ccccc4)cc3)c2cc1OC [SrcI1] (first compound 0.4 µM, partner dose 2 µM), the “cleaved PARP positive nuclei fraction” value is 71.8%.
